Out of some 310,000 compounds screened, about 17,000 (5.5%) were called active. This list was built around the results that the source calls inconclusive (neither active nor inactive); the mix of calls is not that of the screen. The call rests on the fitted dose curve; in most records, active means well fitted inhibition curve with a large enough effect; inconclusive means small, poorly fitted or top-dose-only effect, or effect the other way; inactive means no such curve, though single readings can be large or run the other way. A potency beside an inconclusive call is a rough fit, not a confirmed value.
target: Nuclear receptor ROR-gamma (Mus musculus) (UniProt P51450); experiment: qHTS for inhibitors of ROR gamma transcriptional activity; conditions: Drosophila S2 Gal4-RORgamma UAS-luciferase reporter, 20 h; series mostly up to 53.6 µM; further: nearly all actives have a fitted effect of over 60% in size
Outline: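 Stably transfected Drosophila Schneider cells are the test system, with ROR gamma fused to Gal4 and luciferase under UAS control; luminescence is read after 20 hr of 700 uM copper sulfate induction at ambient temperature.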
Potency means the concentration at half of the fitted maximal effect.

Chains of the proteins cited; added tags and fusions are not shown. Lines headed by an entry give the natural chain unless they say otherwise; changes in a name come on top.
UniProt P51450: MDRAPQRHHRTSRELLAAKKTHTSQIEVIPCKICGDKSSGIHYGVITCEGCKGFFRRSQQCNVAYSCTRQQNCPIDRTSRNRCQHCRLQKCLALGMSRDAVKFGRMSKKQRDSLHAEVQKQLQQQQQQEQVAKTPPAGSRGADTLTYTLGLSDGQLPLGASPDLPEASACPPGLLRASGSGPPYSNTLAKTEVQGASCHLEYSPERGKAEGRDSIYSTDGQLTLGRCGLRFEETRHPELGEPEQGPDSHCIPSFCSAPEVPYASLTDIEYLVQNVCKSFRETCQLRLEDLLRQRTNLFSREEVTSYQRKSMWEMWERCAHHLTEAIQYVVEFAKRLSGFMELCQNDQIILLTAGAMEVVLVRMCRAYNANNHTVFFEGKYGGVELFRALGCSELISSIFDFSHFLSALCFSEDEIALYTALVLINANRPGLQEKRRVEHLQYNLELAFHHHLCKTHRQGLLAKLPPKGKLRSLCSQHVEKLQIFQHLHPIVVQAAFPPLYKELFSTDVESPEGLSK

Q: How did the Potency turn out when `COc1ccccc1Cn1c(-c2ccccc2OC)nc2ccccc21` was run?
A: inconclusive: 5.62 µM [inhibitor, single point]

Q: `COC(=O)Nc1ccc(S(=O)(=O)Nc2cccc3ccccc23)cc1` was tested. Which Potency did it give?
A: inconclusive: 10 µM [activator, partial curve]

Q: How did the Potency turn out when `O=C(CSc1nnc(-c2ccc(Cl)cc2)n1Cc1ccco1)c1cccs1` was run?
A: inconclusive: 35.5 µM [inhibitor, single point]

Q: For `CCOc1cccc(NC(=O)c2ccc(S(=O)(=O)N(C)C)cc2)c1`, which Potency is on record?
A: inactive

Q: Which Potency does the source give for `CCOc1ccccc1NC(=O)CN1CCN(C(=O)C2CCCO2)CC1` (stereo unspecified) here?
A: inactive

Q: `O=C(C1CCCN(S(=O)(=O)c2ccc(Br)cc2)C1)N1CCN(Cc2ccccc2)CC1` (stereo unspecified) was tested. Which Potency did it give?
A: inconclusive: 35.5 µM [activator, single point]

Q: How did the Potency turn out when `COCCNC(=S)N/N=C(\C)c1ccccc1F` was run?
A: active: 3.55 µM

Q: With `COc1ccc(-c2nc(=S)[nH][nH]2)cc1` as the compound, how does the Potency read?
A: active: 10 µM

Q: With `COc1ccc(/C=N/NC(=S)Nc2cccc(C(=O)O)c2)cc1` as the compound, how does the Potency read?
A: active: 3.55 µM

Q: For `O=C(N/N=C/c1ccc(Cl)cc1)c1sccc1OCc1ccc(F)cc1`, which Potency is on record?
A: inconclusive: 0.224 µM [activator, full curve, poor fit]

Q: Which Potency does the source give for `COc1ccc(NC(=O)N2CCC(C(=O)c3ccc4c(c3)OCCO4)CC2)cc1` here?
A: inactive

Q: How did the Potency turn out when `CN(Cc1ccccc1)C(=O)c1ccc(COc2ccccc2)cc1` was run?
A: inconclusive: 11.2 µM [activator, single point]

Q: Which Potency does the source give for `COc1ccccc1C(=O)Nc1ccccc1SC(=O)c1ccccc1OC` here?
A: inconclusive: 35.5 µM [inhibitor, single point]

Q: `OCc1cn(-c2ccccc2)nc1-c1cc2ccccc2o1` was tested. Which Potency did it give?
A: inconclusive: 11.2 µM [inhibitor, single point]

Q: `COc1ccc(-n2nc(C(=O)NCC(=O)NCC3COc4ccccc4O3)c3ccccc3c2=O)cc1` (stereo unspecified) was tested. Which Potency did it give?
A: inconclusive: 2.51 µM [activator, full curve, poor fit]

Q: `N#CC1=C(Nc2ccccc2)SC=C(c2ccc(Cl)c(Cl)c2)N=C1N1CCOCC1` was tested. Which Potency did it give?
A: inactive

Q: How did the Potency turn out when `CCCCCC1CC(=O)C=C(C)C1C(=O)OC` (stereo unspecified) was run?
A: inactive

Q: How did the Potency turn out when `CCc1c(C)sc(NC(=S)NC(C)C2CCCO2)c1C(=O)OC` (stereo unspecified) was run?
A: active: 15.8 µM

Q: How did the Potency turn out when `Cc1ccc(-c2noc(CCC(=O)NCCCN3CCN(c4cccc(Cl)c4)CC3)n2)cc1` was run?
A: active: 3.98 µM

Q: `COc1cc(NC(=O)COn2nnc3ccc(S(C)(=O)=O)cc32)cc(OC)c1` was tested. Which Potency did it give?
A: inconclusive: 8.91 µM [activator, partial curve]

Q: With `CC(C)c1ccc(NC(=S)Nc2ccc(OC(F)(F)F)cc2)cc1` as the compound, how does the Potency read?
A: active: 8.91 µM

Q: `CCOC(=O)c1sc(NC(=O)C(CC)Sc2nccn2C)nc1C` (stereo unspecified) was tested. Which Potency did it give?
A: inconclusive: 35.5 µM [inhibitor, single point]

Q: `COC(=O)COc1ccc(S(=O)(=O)NCc2ccc3c(c2)OCO3)cc1C` was tested. Which Potency did it give?
A: inconclusive: 6.31 µM [inhibitor, single point]

Q: With `COc1ccc(Cn2nnnc2CN(CCCN2CCOCC2)Cc2cc3cc(OC)ccc3[nH]c2=O)cc1` as the compound, how does the Potency read?
A: inactive

Q: How did the Potency turn out when `CC(C)Cc1cc(C(=O)N2CCC(N3CCC(C(=O)N4CCOCC4)CC3)CC2)n[nH]1` was run?
A: inactive

Q: How did the Potency turn out when `CCc1ccc(NC(=O)C2CCN(S(C)(=O)=O)CC2)cc1` was run?
A: inactive

Q: For `CCSc1nc2ccccc2c(=O)n1Cc1ccc(F)cc1`, which Potency is on record?
A: inactive

Q: For `Nc1nc(SCc2ccc(Br)cc2)[nH]c(=O)c1-c1ccccc1`, which Potency is on record?
A: inactive

Q: For `Cc1ccc2nc(-c3ccccc3O)c(Nc3ccc4c(c3)OCCO4)n2c1`, which Potency is on record?
A: active: 17.8 µM

Q: How did the Potency turn out when `Cc1ccccc1/C=c1\s/c(=C\C(=O)C(C)(C)C)[nH]c1=O` was run?
A: inconclusive: 6.31 µM [inhibitor, single point]

Q: With `COc1ccccc1-c1nc2c3ccccc3nc(=S)n2[nH]1` as the compound, how does the Potency read?
A: active: 0.355 µM

Q: `COc1ccc(C(=O)Nc2ccc3nc(N4CCN(C)CC4)cc(C)c3c2)c(OC)c1` was tested. Which Potency did it give?
A: inconclusive: 35.5 µM [inhibitor, single point]

Q: With `C(/CCc1ccccc1)=N\Nc1nc2ccccc2[nH]1` as the compound, how does the Potency read?
A: active: 11.2 µM

Q: How did the Potency turn out when `CN1CCN(c2oc(-c3ccccc3F)nc2S(=O)(=O)c2ccc(Cl)cc2)CC1` was run?
A: inactive

Q: How did the Potency turn out when `COc1cccc(N2CCN(C(=S)Nc3cccc(C)c3)CC2)c1` was run?
A: active: 7.08 µM

Q: Which Potency does the source give for `O=C(NC(=S)NCCC1=CCCCC1)c1ccco1` here?
A: active: 4.47 µM

Q: Which Potency does the source give for `CC(=O)c1cccc(NC(=O)c2ccc3c(c2)CCCC3)c1` here?
A: active: 1.41 µM

Q: `COCC(=O)N/N=C/c1c(C)[nH]n(-c2ccccc2)c1=O` was tested. Which Potency did it give?
A: active: 0.631 µM

Q: With `O=C(NN=C1CCCCCC1)c1cn(-c2ccccc2)nc1-c1ccccc1` as the compound, how does the Potency read?
A: inconclusive: 35.5 µM [inhibitor, single point]

Q: `Cc1cc2oc(=O)cc(CN(C)Cc3cccc(F)c3)c2cc1Cl` was tested. Which Potency did it give?
A: inactive

Q: For `Nc1nonc1-n1nnc(C(=O)N/N=C/c2cccc(Cl)c2Cl)c1CN1CCCC1`, which Potency is on record?
A: inconclusive: 11.2 µM [inhibitor, single point]

Q: How did the Potency turn out when `CCOc1cc(/C=C/C(=O)c2ccc3c(c2)OCCO3)ccc1OCC(=O)N(C)C` was run?
A: inconclusive: 3.55 µM [activator, single point]

Q: How did the Potency turn out when `CC1(C)CC(=O)C2=C(C1)OC(N)=C(C#N)C2c1cn(-c2ccccc2)nc1-c1ccc(F)cc1` (stereo unspecified) was run?
A: inconclusive: 12.6 µM [activator, partial curve]

Q: `CN(C)CCCN1c2ccccc2Sc2ccc(Cl)cc21` was tested. Which Potency did it give?
A: inactive

Q: With `CC(C)Nc1ccc(C(CC(N)=O)NC(=O)Cc2ccc(Cl)cc2)cc1[N+](=O)[O-]` (stereo unspecified) as the compound, how does the Potency read?
A: inconclusive: 12.6 µM [activator, single point]

Q: For `O=C(CN1CCN(S(=O)(=O)c2ccc3ccccc3c2)CC1)Nc1ccc(N2CCOCC2)cc1`, which Potency is on record?
A: inconclusive: 11.2 µM [activator, single point]

Q: Which Potency does the source give for `O=C(Nc1ccc(NC(=O)c2ccccc2F)cc1)c1ccccc1F` here?
A: inactive

Q: How did the Potency turn out when `Cc1cc(C(=O)N2CCCC(N3CCN(c4cccc(C(F)(F)F)c4)CC3)C2)n[nH]1` (stereo unspecified) was run?
A: inconclusive: 35.5 µM [activator, single point]

Q: With `CCCCC(=O)Nc1ccc2c3c(cccc13)CC2` as the compound, how does the Potency read?
A: inconclusive: 12.6 µM [activator, single point]

Q: With `CC(C)CC(=O)NS(=O)(=O)c1ccc(NS(C)(=O)=O)cc1` as the compound, how does the Potency read?
A: inactive

Q: `Cc1cc(NC(=O)Cc2ccccc2[N+](=O)[O-])no1` was tested. Which Potency did it give?
A: inactive

Q: For `Cc1cc2n(n1)SC(Nc1ccc(F)cc1)N2` (stereo unspecified), which Potency is on record?
A: inconclusive: 5.62 µM [inhibitor, partial curve, poor fit]

Q: `COc1ccc(COC(=O)NC2CCN(S(=O)(=O)c3ccc(OC)cc3)CC2)cc1` was tested. Which Potency did it give?
A: inactive

Q: With `CN(CC(=O)NCc1ccccc1)Cc1ccc(Cl)cc1` as the compound, how does the Potency read?
A: inactive

Q: With `C=CCNC(=O)COC(=O)c1oc2ccccc2c1CSC1CCCCC1` as the compound, how does the Potency read?
A: inconclusive: 35.5 µM [inhibitor, single point]

Q: For `COc1ccccc1NS(=O)(=O)c1cccc(NC(=O)Nc2cccc(Cl)c2)c1`, which Potency is on record?
A: inconclusive: 31.6 µM [inhibitor, single point]

Q: Which Potency does the source give for `O=C(c1ccco1)N1CCC2(CC1)CN(C(c1ccccc1)c1ccccc1)C2` here?
A: inconclusive: 14.1 µM [activator, single point]

Q: How did the Potency turn out when `CC1CN(C(=O)CSc2nc(-c3ccccc3)cs2)CC(C)O1` (stereo unspecified) was run?
A: inconclusive: 22.4 µM [activator, single point]

Q: For `CCCN(CC1CC1)C(=S)Nc1ccc(C(C)=O)cc1`, which Potency is on record?
A: inconclusive: 22.4 µM [inhibitor, single point]

Q: How did the Potency turn out when `O=C(NC(c1ccccc1)c1cc(Cl)c2cccnc2c1O)c1cccnc1` (stereo unspecified) was run?
A: active: 0.631 µM

Q: `COc1ccc(C(=O)NC(=S)Nc2cccc3ncccc23)cc1[N+](=O)[O-]` was tested. Which Potency did it give?
A: inconclusive: 35.5 µM [inhibitor, single point]

Q: Which Potency does the source give for `CCOC(=O)C(Cc1ccccc1)NC(=O)CNC(C)=O` (stereo unspecified) here?
A: inactive

Q: With `OCCn1c(-c2ccc(F)cc2)csc1=Nc1ccccc1` as the compound, how does the Potency read?
A: inconclusive: 14.1 µM [activator, partial curve]

Q: How did the Potency turn out when `Oc1c(Br)cc(Br)cc1/C=N/NC(=S)N[C@H]1CC2C=CC1C2` (stereo partly specified) was run?
A: inconclusive: 15.8 µM [inhibitor, single point]

Q: `CC1(C)CC2CC(C)(CN2CC(=O)C(C#N)c2ccccc2)C1` (stereo unspecified) was tested. Which Potency did it give?
A: inconclusive: 11.2 µM [inhibitor, single point]

Q: For `O=C(N/N=C/c1cn(-c2ccccc2)nc1-c1ccc(F)cc1)c1ccc(Br)o1`, which Potency is on record?
A: active: 1.78 µM

Q: `FC(F)(F)c1cccc(-c2nc3nc(Cl)c(Cl)nc3[nH]2)c1` was tested. Which Potency did it give?
A: active: 10 µM

Q: With `Cc1ccc(-c2csc3ncnc(SCc4ccc(C(=O)O)cc4)c23)cc1` as the compound, how does the Potency read?
A: active: 2.82 µM

Q: With `COC(=O)c1ccc(C(c2c(N)n(Cc3ccccc3)c(=O)n(C)c2=O)N2CCOCC2)cc1` (stereo unspecified) as the compound, how does the Potency read?
A: inconclusive: 35.5 µM [activator, single point]

Q: `Cc1cccc(NC(=O)Cn2c(O)c(N=NC(=O)c3ccncc3)c3ccccc32)c1` was tested. Which Potency did it give?
A: inactive

Q: How did the Potency turn out when `CCc1c(C)sc(NC(=O)c2ccoc2C)c1C(N)=O` was run?
A: inactive

Q: For `Cc1cccc(N2CCN(C(=S)Nc3ccc4nc(N5CCN(C)CC5)cc(C)c4c3)CC2C)c1` (stereo unspecified), which Potency is on record?
A: inconclusive: 22.4 µM [inhibitor, single point]

Q: `COc1ccc(CN(C(=O)c2cccs2)C(C(=O)NC2CCCCC2)c2ccc3ncccc3c2)cc1` (stereo unspecified) was tested. Which Potency did it give?
A: active: 35.5 µM

Q: `C(=N\Nc1nc(N2CCCCCC2)nc(N2CCCCCC2)n1)/c1ccccc1` was tested. Which Potency did it give?
A: active: 8.91 µM

Q: For `COc1ccc(N2C(=O)[C@@H]3[C@H](C2=O)[C@H](C(=O)c2ccc(OC(C)=O)cc2)N2N=CC=C[C@@H]32)cc1`, which Potency is on record?
A: inconclusive: 8.91 µM [inhibitor, single point]

Q: With `Cc1ccccc1CSCCNC(=O)c1ccccc1` as the compound, how does the Potency read?
A: inactive
